± gives the standard deviation. This is one part of the list. Many of these values have a large error.
test system: EfPiwi piRISC loaded with L1MC piRNA (26 nt); experiment: pre-steady-state target cleavage rate (min^-1); guide: L1MC piRNA 5'p-UAACUAAAUACUAUGCAAGCUGUAGG; MIWI and MILI are mouse PIWI proteins and EfPiwi is from a freshwater sponge; tags in brackets are library labels; higher = faster piRNA-guided slicing of the target; settings: auxiliary factor: 500 nM Ephydatia muelleri Gtsf1
Experimental: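 Cleave-'n-Seq: a library of target RNAs (target site in constant flanks) at […] was incubated with 1 nM active freshwater sponge Ephydatia fluviatilis Piwi piRISC (synthetic 5'-monophosphorylated piRNA guide) with or without 500 nM EmGtsf1 at 33 °C for 1 min to 16 h. Uncleaved targets were sequenced and the pooled three trials fitted to a burst-and-steady-state model to give the pre-steady-state cleavage rate (min^-1). Sequence is the target site only. Fits with R² ≤ 0 are excluded.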

Row | Sequence | pre-steady-state target cleavage rate
1 | UCCUGGAUCAGCAAGCAUAGUAUUUUCAAA | 0.00165 ± 0.0038
2 | UCCUGGAUGUCGUUGCAAGUAUUUAGUUA | 0.000347 ± 0.0075
3 | UCCUGCUACAGCUUGCAUAUGUAUUUAGUUA | 0.00294 ± 0.0023
4 | UCCUCCUACAGCUUGCAUAGUUAAUUCAAA | 0.00233 ± 0.003
5 | UCCUGGAACAGCUAGCAUAGUAUUUUCAAA | 0.00177 ± 0.0037
6 | UCCUGGAUGUCCUUCGCAUAGUAUUUAGUUA | 0.01 ± 0.0052
7 | UCCUGGAUGAGCUUGGAUACUAUUUAGUUA | 0.00245 ± 0.0032
8 | UCCUGCUACAGCUUGGUUAGUAUUUAGAAA | 0.00162 ± 0.0022
9 | UCCUGGAUGAGGUUCCAUAGUAUUUAGUUA | 0.000358 ± 0.01
10 | UCCUGGAACAGGUUGCAUAGUAUUUAGAAA | 0.00261 ± 0.0017
11 | UCCUGCUACAGCGUUGCAUAGUAUUUAGUUA | 0.0103 ± 0.0024
12 | UCCUGGAUGUGCUUGCAUAGUAUUUAGUUU [g2:g20:cont:t1U] | 0.052 ± 0.017
13 | UCCUGGAUCAGCUUGCAUAGAUAUUACAAA | 0.00117 ± 0.0093
14 | UCCUGGAUGUCGUUGCAUAGUAUUUAUGUUA | 0.000359 ± 0.013
15 | UCCUGGAUGUCGAACGAUAGUAUUUAGUUA | < 0.0001
16 | UCCUGGUACAGCUUGCAUAGUUAUUUCAAA | 0.000661 ± 0.0059
17 | UCCUGGAUGUCGAAGCAUAGUAUUUCAGUUA | 0.00032 ± 0.0098
18 | UCCUGGAUGUCCUUGCAUAGUUAAUAGUUA | 0.00121 ± 0.0062
19 | UCCUGGAACAGCUUGCAUUCAAUUUACAAA | 0.000456 ± 0.0061
20 | UCCUGGAACAGCUUGCAUAGGAUUUAGUUA | 0.00146 ± 0.0027
21 | UCCUGGUACAGCUUCCAUAGUAUUUUCAAA | 0.00111 ± 0.0043
22 | UCCUGGAUCAGCAUGCAUAGUAUUUACAAA | 0.00615 ± 0.0038

same assay, conditions: auxiliary factor: none (no Gtsf1)

Row | Sequence | pre-steady-state target cleavage rate
23 | UCCUGGAUGUCGUUGCAAGUAUUUAGUUA | 0.000202 ± 0.044
24 | UCCUGCUACAGCUUGCAUAUGUAUUUAGUUA | < 0.0001
25 | UCCUCCUACAGCUUGCAUAGUUAAUUCAAA | 0.000301 ± 0.015
26 | UCCUGGAACAGCUAGCAUAGUAUUUUCAAA | 0.000132 ± 0.035
27 | UCCUGGAUGAGCUUGGAUACUAUUUAGUUA | 0.000352 ± 0.027
28 | UCCUGCUACAGCUUGGUUAGUAUUUAGAAA | 0.000234 ± 0.028
29 | UCCUGGAUGAGGUUCCAUAGUAUUUAGUUA | 0.000124 ± 0.07
30 | UCCUGGAACAGGUUGCAUAGUAUUUAGAAA | 0.000402 ± 0.016
31 | UCCUGCUACAGCGUUGCAUAGUAUUUAGUUA | 0.000789 ± 0.008
32 | UCCUGGAUCAGCUUGCAUAGAUAUUACAAA | 0.000637 ± 0.016
33 | UCCUGGAUGUCGUUGCAUAGUAUUUAUGUUA | 0.000594 ± 0.018
34 | UCCUGGAUGUCGAACGAUAGUAUUUAGUUA | 0.000101 ± 0.041
35 | UCCUGGUACAGCUUGCAUAGUUAUUUCAAA | 0.000415 ± 0.022
36 | UCCUGGAUGUCGAAGCAUAGUAUUUCAGUUA | 0.00068 ± 0.011
37 | UCCUGGAACAGCUUGCAUUCAAUUUACAAA | 0.000383 ± 0.017
38 | UCCUGGAACAGCUUGCAUAGGAUUUAGUUA | 0.00109 ± 0.0078
39 | UCCUGGUACAGCUUCCAUAGUAUUUUCAAA | 0.00018 ± 0.042
40 | UCCUGGAUCAGCAUGCAUAGUAUUUACAAA | 0.00056 ± 0.0098

Reference: the supplement of paper PMC10338343
